According to the supplement of paper PMC8090911:
Counter-ions that a name gives are not always drawn. The list shows a part of the results. Repeats are few or missing, and single values can be far off.

System: p95-ErbB2-MCF7
Test: perinuclear lysosome accumulation (PNLA, size of LAMP2 puncta), robust Z-score vs plate median; higher = more perinuclear lysosome accumulation (reversal of invasive lysosome distribution)
Conditions: 5 µM; 24 h

SMILES | perinuclear lysosome accumulation
CCOC(=O)C(C)(C)Oc1ccc(Cl)cc1 [Clofibrate] | -3.08
CC(=O)N(O)CCCCCNC(=O)CCC(=O)N(O)CCCCCNC(=O)CCC(=O)N(O)CCCCCN [Deferoxamine mesylate] | -0.792
CCN[C@H]1C[C@H](C)S(=O)(=O)c2sc(S(N)(=O)=O)cc21 [Dorzolamide hydrochloride] | 0.891
CC(C)/N=c1\cc2n(-c3ccc(Cl)cc3)c3ccccc3nc-2cc1Nc1ccc(Cl)cc1 [Clofazimine] | 3.58
O=C1Cc2cc(CCN3CCN(c4nsc5ccccc45)CC3)c(Cl)cc2N1 [Ziprasidone  Hydrochloride] | -2.03
O=c1cc(-c2ccc(O)c(O)c2)oc2cc(O)cc(O)c12 [Luteolin] | -0.467
CC(C)(C(=O)c1cccnc1)c1cccnc1 [Metyrapone] | 1.66
Cc1cc(=O)n(-c2ccccc2)n1C [Antipyrine] | 1.26
Clc1ccc(COC(Cn2ccnc2)c2ccc(Cl)cc2Cl)c(Cl)c1 (configuration not stated) [Miconazole] | 0.258
NC12CC3CC(CC(C3)C1)C2 [Adamantamine fumarate] | 0.542
Cc1ccc(-c2ncc(Cl)cc2-c2ccc(S(C)(=O)=O)cc2)cn1 [Etoricoxib] | 0.533
CC1CCc2c(N3CCC(O)CC3)c(F)cc3c(=O)c(C(=O)O)cn1c23 (configuration not stated) [Nadifloxacin] | -0.332
C[C@@H]1NC(=O)NC1=O [Methylhydantoin-5-(L)] | 0.427
COc1ccc(-c2ccc(=N)n(CCCC(=O)O)n2)cc1 [Gabazine] | 0.207
CO[C@H]1C[C@H](O[C@H]2[C@H](C)[C@@H](O[C@@H]3O[C@H](C)C[C@H](N(C)C)[C@H]3OC(C)=O)[C@@H](C)C[C@@]3(CO3)C(=O)[C@H](C)[C@@H](OC(C)=O)[C@@H](C)[C@@H](C)OC(=O)[C@@H]2C)O[C@@H](C)[C@@H]1OC(C)=O [Troleandomycin] | -0.494
Cc1cc(C(=O)NNCc2ccccc2)no1 [Isocarboxazid] | -0.166
CC(C)(S)[C@@H](N)C(=O)O [Penicillamine] | 1.82
CN(C)CC/C=C1\c2ccccc2CSc2ccccc21 [Dosulepin hydrochloride] | 0.0231
CC(C)(Oc1ccc(Cl)cc1)C(=O)O [Clofibric acid] | -0.592
CS(=O)(=O)CCNCc1ccc(-c2ccc3ncnc(Nc4ccc(OCc5cccc(F)c5)c(Cl)c4)c3c2)o1 [Lapatinib ditosylate] | 1.37
Cn1ccnc1S [Methimazole] | 0.312
Nc1c(Br)cc(Br)cc1CN[C@H]1CC[C@H](O)CC1 [Ambroxol hydrochloride] | 0.342
CC(C)(Sc1cc(C(C)(C)C)c(O)c(C(C)(C)C)c1)Sc1cc(C(C)(C)C)c(O)c(C(C)(C)C)c1 [Probucol] | -0.108
CN1CCC(=C2c3ccccc3CC(=O)c3sccc32)CC1 [Ketotifen fumarate] | -0.14
COc1ccccc1N1CCN(CC(O)COc2cccc3ccccc23)CC1 (configuration not stated) [Naftopidil dihydrochloride] | 0.21
CN1CCCC(CC2c3ccccc3Sc3ccccc32)C1 (configuration not stated) [Metixene hydrochloride] | 4.49

11 entries from above, arranged by SMILES length, smallest number first:
SMILES | perinuclear lysosome accumulation
Cn1ccnc1S [Methimazole] | 0.312
C[C@@H]1NC(=O)NC1=O [Methylhydantoin-5-(L)] | 0.427
CC(C)(Oc1ccc(Cl)cc1)C(=O)O [Clofibric acid] | -0.592
CN(C)CC/C=C1\c2ccccc2CSc2ccccc21 [Dosulepin hydrochloride] | 0.0231
O=c1cc(-c2ccc(O)c(O)c2)oc2cc(O)cc(O)c12 [Luteolin] | -0.467
Clc1ccc(COC(Cn2ccnc2)c2ccc(Cl)cc2Cl)c(Cl)c1 (configuration not stated) [Miconazole] | 0.258
CC1CCc2c(N3CCC(O)CC3)c(F)cc3c(=O)c(C(=O)O)cn1c23 (configuration not stated) [Nadifloxacin] | -0.332
CC(C)/N=c1\cc2n(-c3ccc(Cl)cc3)c3ccccc3nc-2cc1Nc1ccc(Cl)cc1 [Clofazimine] | 3.58
CC(=O)N(O)CCCCCNC(=O)CCC(=O)N(O)CCCCCNC(=O)CCC(=O)N(O)CCCCCN [Deferoxamine mesylate] | -0.792
CS(=O)(=O)CCNCc1ccc(-c2ccc3ncnc(Nc4ccc(OCc5cccc(F)c5)c(Cl)c4)c3c2)o1 [Lapatinib ditosylate] | 1.37
CO[C@H]1C[C@H](O[C@H]2[C@H](C)[C@@H](O[C@@H]3O[C@H](C)C[C@H](N(C)C)[C@H]3OC(C)=O)[C@@H](C)C[C@@]3(CO3)C(=O)[C@H](C)[C@@H](OC(C)=O)[C@@H](C)[C@@H](C)OC(=O)[C@@H]2C)O[C@@H](C)[C@@H]1OC(C)=O [Troleandomycin] | -0.494

Remaining list, next part:

SMILES | perinuclear lysosome accumulation
CCN1C(=O)NC(c2ccccc2)C1=O (configuration not stated) [Ethotoin] | -0.292
CCCN(CCC)C(=O)C(CCC(=O)O)NC(=O)c1ccccc1 (configuration not stated) [Proglumide] | 1.13
COc1ccc2c(c1)N(C[C@H](C)CN(C)C)c1ccccc1S2 [Methotrimeprazine maleat salt] | 1.79
N#CC(c1ccc(Cl)cc1)c1c(Cl)cc(-n2ncc(=O)[nH]c2=O)cc1Cl (configuration not stated) [Diclazuril] | 0.975
COc1cc(OC)c(C(=O)CCCN2CCCC2)c(OC)c1 [Buflomedil hydrochloride] | 0.345
CCCCC(CC)CN1CN(CC(CC)CCCC)CC(C)(N)C1 (configuration not stated) [Hexetidine] | -1.83
O=C(CCCN1CCC(O)(c2ccc(Br)cc2)CC1)c1ccc(F)cc1 [Bromperidol] | 0.222
CO[C@@]1(NC(=O)Cc2cccs2)C(=O)N2C(C(=O)O)=C(COC(N)=O)CS[C@@H]21 [Cefoxitin sodium salt] | -1.09
CC(=O)c1ccc2c(c1)N(CCCN1CCC(CCO)CC1)c1ccccc1S2 [Piperacetazine] | 1.08
CCN(CC)CCOC(=O)C(c1ccccc1)C1CCCCC1 (configuration not stated) [Drofenine hydrochloride] | -0.33
CS(=O)(=O)c1ccc(C2=C(c3ccccc3)C(=O)OC2)cc1 [Rofecoxib] | 0.822
Cn1c(=O)c2[nH]cnc2n(C)c1=O [Aminophylline] | 0.00782
Cc1[nH]c(=O)c(C#N)cc1-c1ccncc1 [Milrinone] | -0.549
CN(C)CCC=C1c2ccccc2CCc2ccccc21 [Amitryptiline hydrochloride] | -0.137
C[C@]12CC[C@H]3C(=CCc4cc(O)ccc43)[C@@H]1CCC2=O [Equilin] | 0.0212
O=P(O)(O)C(Sc1ccc(Cl)cc1)P(=O)(O)O [Tiludronate disodium] | -0.747
C=C[C@H]1CN2CC[C@H]1C[C@@H]2[C@@H](O)c1ccnc2ccc(OC)cc12 [Quinidine hydrochloride monohydrate] | 0.106
Cc1cccc(C)c1NC(=O)C1CCCCN1C (configuration not stated) [Mepivacaine hydrochloride] | 1.15
Cc1ncc([N+](=O)[O-])n1CC(O)CCl (configuration not stated) [Ornidazole] | 0.207
CN1C(C(=O)Nc2ccccn2)=C(O)c2sccc2S1(=O)=O [Tenoxicam] | 0.87
COc1cc(C(=O)NS(=O)(=O)c2ccccc2C)ccc1Cc1cn(C)c2ccc(NC(=O)OC3CCCC3)cc12 [Zafirlukast] | 1.9
Cc1cc(C2CCCCC2)n(O)c(=O)c1 [Ciclopirox ethanolamine] | -0.551
NS(=O)(=O)c1cc(C(=O)O)c(NCc2ccco2)cc1Cl [Furosemide] | -1.58
CCOC(=O)[C@H](CCc1ccccc1)N[C@@H](C)C(=O)N1[C@H](C(=O)O)C[C@@H]2CCC[C@@H]21 [Ramipril] | 0.0869
CCOc1ccc2c(c1)C(C)=CC(C)(C)N2 [Ethoxyquin] | -0.0952
NC(=O)c1ncn([C@@H]2O[C@H](CO)[C@@H](O)[C@H]2O)n1 [Ribavirin] | -1.29
